This is one part of the list.
Biological target: OsWRKY34 (Oryza sativa, UniProt Q0JBA9 1-250)
Assay: protein-binding microarray (RPBM); PBS, 2% BSA, 51.3 ng/ul salmon testes DNA, 50 uM zinc acetate, 200 nM TF, 25 C, 1 h; high values mean tight binding
Settings: protein: recombinant; tags: N-terminal polyhistidine and DsRed monomer fusion (pET32a); label: CyDye5-dUTP incorporated in the synthesized complementary strand; 3' TTTTT single-stranded linker to array surface; dsDNA, one strand shown
Procedure, shortened: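 Ni–NTA purification followed expression in E. coli BL21-CodonPlus of transcription factors fused N-terminally to a polyhistidine tag and DsRed. At 200 nM in PBS with 2% BSA, salmon testes DNA and 50 µM zinc acetate, the protein was incubated for 1 h at 25 °C with a custom Agilent array that had been primer-extended with Cy5-dUTP and blocked with 2% BSA. After washing, the array was read on an Axon 4000B scanner. The binding signal is per-feature fluorescence intensity in arbitrary units.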

Chains of the proteins cited; added tags and fusions are not shown.
UniProt Q0JBA9, entry or part of it: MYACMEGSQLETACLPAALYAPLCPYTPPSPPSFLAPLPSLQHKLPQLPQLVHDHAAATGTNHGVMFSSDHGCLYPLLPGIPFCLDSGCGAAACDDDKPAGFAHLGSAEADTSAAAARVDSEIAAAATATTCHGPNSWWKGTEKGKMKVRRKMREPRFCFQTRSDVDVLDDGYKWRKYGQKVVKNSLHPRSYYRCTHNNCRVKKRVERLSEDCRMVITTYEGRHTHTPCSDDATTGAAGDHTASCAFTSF

Sequence | binding signal
TATCTTAGGGCATGTTTGGTTGTACGGATCGTACCTGACTCGGAGTCACCTAGTGCAG | 9620 fluorescence intensity (a.u.)
CAGGAGGCAGGGGTGATCTTTCAGCGGTTAAATCGGGTGACGGAGTCACCTAGTGCAG | 8590 fluorescence intensity (a.u.)
TTCCTCGCCGCTTTTTTCTTTGCTTCTTGCGGTGGCCATGCGGAGTCACCTAGTGCAG | 8440 fluorescence intensity (a.u.)
TATACATGGGCTTAATTCTCACCAACAGCGACGGGTGGGCCGGAGTCACCTAGTGCAG | 8230 fluorescence intensity (a.u.)
ATTGGAGTTGGTATGGGCGTGTCTGTGGTTTTGAAACATTCGGAGTCACCTAGTGCAG | 8650 fluorescence intensity (a.u.)
GGTACTTTTCCGGCGGCGGCGGCGGCGGCGGTGGCGGTGGCGGAGTCACCTAGTGCAG | 13500 fluorescence intensity (a.u.)
TCTAGCCCTAACGAATCACAAAAATCATGTCTGTTTTTTTCGGAGTCACCTAGTGCAG | 8980 fluorescence intensity (a.u.)
TCTCTCAGTCTCTCACTGACAAATACGTCTCACTAACTGACGGAGTCACCTAGTGCAG | 8110 fluorescence intensity (a.u.)
CCTTCCAAAACGCGCCCGATCCAACTCTTGTCCTCGCGCGCGGAGTCACCTAGTGCAG | 8280 fluorescence intensity (a.u.)
AATGTTTCTTTGATTTTTGTTGCTATGTAGGAGTAGTATACGGAGTCACCTAGTGCAG | 8220 fluorescence intensity (a.u.)
TATGTGTTTTCTCGTGGCCTAATCAAACGACCATTCCTATCGGAGTCACCTAGTGCAG | 8410 fluorescence intensity (a.u.)
CACCGTACGTTGATCCGCTAGACTCTGCTCCAGTTGACCACGGAGTCACCTAGTGCAG | 8540 fluorescence intensity (a.u.)
AACCACACTCTGTTTCTAACATTTTTTCTTGTTACATGACCGGAGTCACCTAGTGCAG | 13100 fluorescence intensity (a.u.)
CCAACTACCTCGCCCAGCCGCACACCGGATTGAGATTCATCGGAGTCACCTAGTGCAG | 8190 fluorescence intensity (a.u.)
ACATCATTTACCTGTACAAAACATCTCAATTATGCATTGTCGGAGTCACCTAGTGCAG | 8840 fluorescence intensity (a.u.)
CTACTGCTCTCCCCGAACGCGCTACCGTTGTTGGACCCGACGGAGTCACCTAGTGCAG | 9250 fluorescence intensity (a.u.)
GTTTTCATATTTTTTTCTCACTGTTGGCACTTACACAATCCGGAGTCACCTAGTGCAG | 9420 fluorescence intensity (a.u.)
GGAACACTTGTCACATCATTAAGGTTGATGGTTAGCCCGACGGAGTCACCTAGTGCAG | 8080 fluorescence intensity (a.u.)
GAGCACATACTTTGGTCATTAATGGTGATTATAATGATATCGGAGTCACCTAGTGCAG | 8820 fluorescence intensity (a.u.)
AGCAATCTTGGCCGTCACTCCACTGCACTCCTATTTATCCCGGAGTCACCTAGTGCAG | 10200 fluorescence intensity (a.u.)
CTTACACTGCCTTTAACCTCCTTTCTTTCCCTAGGACCTACGGAGTCACCTAGTGCAG | 8250 fluorescence intensity (a.u.)
GGGATCTACTGCGGCGGTGGGGTCGAGCGAGGGACCGGCGCGGAGTCACCTAGTGCAG | 8310 fluorescence intensity (a.u.)
CAACCTCGCCGTCCTTCGCTTGCTCACGCGGCCTTCTCCGCGGAGTCACCTAGTGCAG | 11000 fluorescence intensity (a.u.)
TGGTAGTATTTAGTTTGCCTTTTCTTCACGGTTGGTGTCTCGGAGTCACCTAGTGCAG | 8040 fluorescence intensity (a.u.)
TGCTGCTCCTACATACTCCCTCCGTTTCGGAATGTTTGACCGGAGTCACCTAGTGCAG | 9230 fluorescence intensity (a.u.)
GAACTGTCCACGTTACCAGCCCGCATTGAATAACGCTTTGCGGAGTCACCTAGTGCAG | 10500 fluorescence intensity (a.u.)
AAACTTTTCCCAAACTCTCAACTTTCCATCACATCACATCCGGAGTCACCTAGTGCAG | 9200 fluorescence intensity (a.u.)

Looked up one by one from the list above (three):
Sequence | binding signal
CCAACTACCTCGCCCAGCCGCACACCGGATTGAGATTCATCGGAGTCACCTAGTGCAG | 8190 fluorescence intensity (a.u.)
ACATCATTTACCTGTACAAAACATCTCAATTATGCATTGTCGGAGTCACCTAGTGCAG | 8840 fluorescence intensity (a.u.)
CTACTGCTCTCCCCGAACGCGCTACCGTTGTTGGACCCGACGGAGTCACCTAGTGCAG | 9250 fluorescence intensity (a.u.)

Going on with the list.

Sequence | binding signal
CTTGTCACCGCTGCTAGCTCTTCATTTTGCACTCCAGACTCGGAGTCACCTAGTGCAG | 9640 fluorescence intensity (a.u.)
GGTGGGCCGGGCTTTGCTTTTGCTTTAAACATTTGCGTGGCGGAGTCACCTAGTGCAG | 8680 fluorescence intensity (a.u.)
CACAAAAACTTACCTATGTTTTCTTTTGGTTGCTGTGGTTCGGAGTCACCTAGTGCAG | 8640 fluorescence intensity (a.u.)
ATAGTCTCCTTATAGTACTGGTGTTTTTTTTAAAAAAAATCGGAGTCACCTAGTGCAG | 10100 fluorescence intensity (a.u.)
CTCGTCTGCGCCTCGCCTCGCCTCGCCTCCACGACCGGTCCGGAGTCACCTAGTGCAG | 11600 fluorescence intensity (a.u.)
AACAATTATCCACAAATGGACAGACATCATCATCGGTCACCGGAGTCACCTAGTGCAG | 9060 fluorescence intensity (a.u.)
TGTTGTTGTTTCTTTGCATTTGTATGCCTGCCGTCTGCATCGGAGTCACCTAGTGCAG | 14700 fluorescence intensity (a.u.)
GTTAATAATCCACGTTTTCCGATGCATCCATGACTCATTCCGGAGTCACCTAGTGCAG | 11900 fluorescence intensity (a.u.)
CACTGCCCATTCGCCACGTCCCCTAACGCTCCAGGTTTATCGGAGTCACCTAGTGCAG | 8920 fluorescence intensity (a.u.)
TCATTTCGTTCTAGCTCCGCCTCTGCACATGGCGCAACATCGGAGTCACCTAGTGCAG | 9000 fluorescence intensity (a.u.)
CACCCCAATGCAAAGCCCATTCTGATACTCCTTTTCACCGCGGAGTCACCTAGTGCAG | 9380 fluorescence intensity (a.u.)
TAGGTGATGATTTCGTGTTTTGGTCCTGTATTTATGTTGGCGGAGTCACCTAGTGCAG | 8120 fluorescence intensity (a.u.)
CTGCTTTCCCGTTATTTTCTTATTTAGATATAGATTGATTCGGAGTCACCTAGTGCAG | 9290 fluorescence intensity (a.u.)
GAATCAGCCTTTTCAGTCACCACTTCTTTCTCCTTTCTCTCGGAGTCACCTAGTGCAG | 9310 fluorescence intensity (a.u.)
TTGGACCTAACCACATCCTTGACCGTCGATTTGTACCCCACGGAGTCACCTAGTGCAG | 8690 fluorescence intensity (a.u.)
CTCACCATTTTCACTCACTCACTCACACTGAACTCCTATGCGGAGTCACCTAGTGCAG | 8360 fluorescence intensity (a.u.)
GTTCTGATAGTCTTGGAGGTGTTGTCGTTCCTTGTTGGTACGGAGTCACCTAGTGCAG | 8550 fluorescence intensity (a.u.)
TCCAGCGATGCCCTAGCCTCCGTTCTCGTACGCACTTTGTCGGAGTCACCTAGTGCAG | 8900 fluorescence intensity (a.u.)
GCCGCCACCACCACCACCACCACCGTGCCCACGCCATCGCCGGAGTCACCTAGTGCAG | 12700 fluorescence intensity (a.u.)
AACCTGGAGCACACACTCGCCTCCTTCCATCGCTGATGCACGGAGTCACCTAGTGCAG | 8370 fluorescence intensity (a.u.)
TGCCGCACCTTGTGACCATTCCCGCCATAATCCTTGAACTCGGAGTCACCTAGTGCAG | 9480 fluorescence intensity (a.u.)
GAGGTGGGGTGCATTTTCCCTAAATTTTTGAACAGTTTATCGGAGTCACCTAGTGCAG | 8820 fluorescence intensity (a.u.)
GATTTAAAGTTGTCTTTTTGTGGGTGGGAAATCATTTCCACGGAGTCACCTAGTGCAG | 12700 fluorescence intensity (a.u.)
TCCCTCCCTCTCTCTCTCTCTGTTTCTCCAGTCTCCACATCGGAGTCACCTAGTGCAG | 11200 fluorescence intensity (a.u.)
CACCGGCGCCACCTCCACCTGCTCGCTGCGCGCCCAGCCACGGAGTCACCTAGTGCAG | 8630 fluorescence intensity (a.u.)
AACCATAGTTTATGTTTACTAATGTATTCCTTTCCTATTTCGGAGTCACCTAGTGCAG | 8060 fluorescence intensity (a.u.)
GGCCGTGTCGGCATCCTCCGCGACATCCTTGTCATTGCTCCGGAGTCACCTAGTGCAG | 8200 fluorescence intensity (a.u.)
